Values from PubChem BioAssay AID602196 (INSERM, 2012)
Shown is one part, drawn at random, of about 23,000 reagents. 455 of them (2%) were called active. 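Active includes both protection and sensitisation; some change values fall well beyond the stated -50 to +50 range.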 Unmarked entries are inactive. Not all columns of the deposit are shown. No sequences are given here. Not stated in the record: the amount of reagent.

Assay: 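Knock-downs that protect lung cancer cells from cisplatin or sensitise them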
Cells: human A549 lung cancer cells
Knock-down reagent: siRNA pair against human genes
Timing: 48 h transfection before cisplatin; time from cisplatin to read-out not stated
Treatment: cisplatin at a dose killing half of control-siRNA cells; exact dose and duration not given
Measured: 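Shift in cisplatin death relative to control siRNA, from -50 (all cells die) to +50 (no cells die); siRNAs harmful on their own scored 0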
Scale: two-siRNA summed score (-2 to +2): higher = both siRNAs protect from cisplatin killing; -2 means both sensitise; mean protection from cisplatin (shift in death): higher = protection from cisplatin killing
Hit rule: 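Each siRNA scores 0 if harmful alone by LDH or WST-1, otherwise +1 if it reduces and -1 if it increases cisplatin killing; a gene is active when both siRNAs agree (sum +2 or -2)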
Calls: active = both siRNAs shift cisplatin killing the same way; inactive = no consistent shift, or siRNA harmful alone

Depletion of RPS21 (ribosomal protein S21) resulted in: two-siRNA summed score (-2 to +2) = 0; mean protection from cisplatin (shift in death) (%) = 14.5. After knock-down of OR52B6 (olfactory receptor family 52 subfamily B member 6) the results were two-siRNA summed score (-2 to +2) = 0; mean protection from cisplatin (shift in death) (%) = -0.2. After knock-down of IRX3 (iroquois homeobox 3), the screen gave two-siRNA summed score (-2 to +2) = 0; mean protection from cisplatin (shift in death) (%) = 9.3. After knock-down of LRCH3 the results were two-siRNA summed score (-2 to +2) = 0; mean protection from cisplatin (shift in death) (%) = -2.8. After knock-down of SSX2 (SSX family member 2), the record shows two-siRNA summed score (-2 to +2) = -1; mean protection from cisplatin (shift in death) (%) = -7.5. Knock-down of MLIP (muscular LMNA interacting protein) came out at: two-siRNA summed score (-2 to +2) = 0; mean protection from cisplatin (shift in death) (%) = 0.7.

With knock-down of ASTN1 (astrotactin 1) the results were two-siRNA summed score (-2 to +2) = 0; mean protection from cisplatin (shift in death) (%) = 10.8. Depletion of LOC340168 resulted in: two-siRNA summed score (-2 to +2) = 1; mean protection from cisplatin (shift in death) (%) = 12.6. PMM1 (phosphomannomutase 1) scored two-siRNA summed score (-2 to +2) = -1; mean protection from cisplatin (shift in death) (%) = -19.4. With knock-down of CLMB (calcimembrin) the results were two-siRNA summed score (-2 to +2) = 0; mean protection from cisplatin (shift in death) (%) = 3.7. WDR13 (WD repeat domain 13) showed two-siRNA summed score (-2 to +2) = -1; mean protection from cisplatin (shift in death) (%) = -9.5. Against LOC442166, the values are two-siRNA summed score (-2 to +2) = 0; mean protection from cisplatin (shift in death) (%) = -5.2.

Against WDR4, the values are two-siRNA summed score (-2 to +2) = 0; mean protection from cisplatin (shift in death) (%) = 1.6. Silencing of TXNDC5 (thioredoxin domain containing 5) gave: two-siRNA summed score (-2 to +2) = 0; mean protection from cisplatin (shift in death) (%) = 10.1. Silencing of RDH5 (retinol dehydrogenase 5) resulted in: two-siRNA summed score (-2 to +2) = -1; mean protection from cisplatin (shift in death) (%) = -9.9. WDR83OS (WD repeat domain 83 opposite strand) showed two-siRNA summed score (-2 to +2) = 0; mean protection from cisplatin (shift in death) (%) = 4.8. Knock-down of MRPL33 (mitochondrial ribosomal protein L33) gave: two-siRNA summed score (-2 to +2) = 0; mean protection from cisplatin (shift in death) (%) = 13.1. TCHP (trichoplein keratin filament binding) scored two-siRNA summed score (-2 to +2) = 0; mean protection from cisplatin (shift in death) (%) = 5.1.

DNAJB12 (DnaJ heat shock protein family (Hsp40) member B12) scored two-siRNA summed score (-2 to +2) = 0; mean protection from cisplatin (shift in death) (%) = 2.7. Depletion of GTPBP8 (GTP binding protein 8) resulted in: two-siRNA summed score (-2 to +2) = 0; mean protection from cisplatin (shift in death) (%) = 7.8. PFKM (phosphofructokinase, muscle) showed two-siRNA summed score (-2 to +2) = 0; mean protection from cisplatin (shift in death) (%) = 2.8. After knock-down of ARMC10 (armadillo repeat containing 10), the record shows two-siRNA summed score (-2 to +2) = -1; mean protection from cisplatin (shift in death) (%) = -8.6. TNFRSF11A (TNF receptor superfamily member 11a) scored two-siRNA summed score (-2 to +2) = 0; mean protection from cisplatin (shift in death) (%) = 1.5. With knock-down of LOC441367, the screen gave two-siRNA summed score (-2 to +2) = 0; mean protection from cisplatin (shift in death) (%) = -0.1.

4 entries from above, set out differently.
| gene | two-siRNA summed score (-2 to +2) | mean protection from cisplatin (shift in death) (%) |
| --- | --- | --- |
| GTPBP8 (GTP binding protein 8) | 0 | 7.8 |
| PFKM (phosphofructokinase, muscle) | 0 | 2.8 |
| ARMC10 (armadillo repeat containing 10) | -1 | -8.6 |
| TNFRSF11A (TNF receptor superfamily member 11a) | 0 | 1.5 |

The results go on.
Depletion of CEBPE (CCAAT enhancer binding protein epsilon) gave: two-siRNA summed score (-2 to +2) = 0; mean protection from cisplatin (shift in death) (%) = 9.6. Knock-down of MRPL41 (mitochondrial ribosomal protein L41) came out at: two-siRNA summed score (-2 to +2) = 0; mean protection from cisplatin (shift in death) (%) = 8.8. Against PPCS (phosphopantothenoylcysteine synthetase) the deposit lists two-siRNA summed score (-2 to +2) = 0; mean protection from cisplatin (shift in death) (%) = 5. For WFDC10B (WAP four-disulfide core domain 10B), the values are two-siRNA summed score (-2 to +2) = -1; mean protection from cisplatin (shift in death) (%) = -0.7. Against DBX2 (developing brain homeobox 2) the deposit lists two-siRNA summed score (-2 to +2) = 0; mean protection from cisplatin (shift in death) (%) = 6.7. LOC401883 scored two-siRNA summed score (-2 to +2) = 0; mean protection from cisplatin (shift in death) (%) = 2.7.

For SMAP2 (small ArfGAP2) the deposit lists two-siRNA summed score (-2 to +2) = 0; mean protection from cisplatin (shift in death) (%) = -7.4. With knock-down of KIF15 (kinesin family member 15), the screen gave two-siRNA summed score (-2 to +2) = 0; mean protection from cisplatin (shift in death) (%) = 9.8. Knock-down of BEX2 (brain expressed X-linked 2) gave: two-siRNA summed score (-2 to +2) = 1; mean protection from cisplatin (shift in death) (%) = 2.7. Against BIRC7 (baculoviral IAP repeat containing 7), the entry reads two-siRNA summed score (-2 to +2) = 0; mean protection from cisplatin (shift in death) (%) = -3.8. With knock-down of CHI3L1 (chitinase 3 like 1) the results were two-siRNA summed score (-2 to +2) = 0; mean protection from cisplatin (shift in death) (%) = 1.1. Knock-down of LOC440545 gave: two-siRNA summed score (-2 to +2) = 1; mean protection from cisplatin (shift in death) (%) = 10.9.

For SLC45A1, the values are two-siRNA summed score (-2 to +2) = 0; mean protection from cisplatin (shift in death) (%) = 22.3. With knock-down of UBE2N (ubiquitin conjugating enzyme E2 N), the screen gave two-siRNA summed score (-2 to +2) = -1; mean protection from cisplatin (shift in death) (%) = -15.7. Knock-down of LOC389184 gave: two-siRNA summed score (-2 to +2) = 0; mean protection from cisplatin (shift in death) (%) = -3.9. With knock-down of KLK10 (kallikrein related peptidase 10), the screen gave two-siRNA summed score (-2 to +2) = 0; mean protection from cisplatin (shift in death) (%) = -16.2.
